From the supplement of paper PMC10849652
The list shows a part of the results.

Sequences of proteins named here, by UniProt entry; tags and fusion partners are left off. A change or cut given only in a name is not applied to a line headed by its entry.
UniProt Q13362, whole entry, looked up: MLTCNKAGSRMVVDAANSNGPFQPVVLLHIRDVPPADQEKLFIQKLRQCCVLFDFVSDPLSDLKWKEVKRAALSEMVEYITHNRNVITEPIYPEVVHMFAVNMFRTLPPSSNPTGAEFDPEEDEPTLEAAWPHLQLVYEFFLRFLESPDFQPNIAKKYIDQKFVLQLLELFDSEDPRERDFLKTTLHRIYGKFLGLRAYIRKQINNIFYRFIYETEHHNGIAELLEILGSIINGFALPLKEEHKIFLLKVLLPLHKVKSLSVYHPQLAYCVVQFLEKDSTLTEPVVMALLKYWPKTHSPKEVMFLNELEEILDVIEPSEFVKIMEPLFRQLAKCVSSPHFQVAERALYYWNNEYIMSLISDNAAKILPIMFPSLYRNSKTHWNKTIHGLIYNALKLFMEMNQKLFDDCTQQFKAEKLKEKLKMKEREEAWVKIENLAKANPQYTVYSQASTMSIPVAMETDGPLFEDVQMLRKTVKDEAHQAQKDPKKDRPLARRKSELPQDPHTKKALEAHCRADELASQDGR
UniProt Q9NQV6: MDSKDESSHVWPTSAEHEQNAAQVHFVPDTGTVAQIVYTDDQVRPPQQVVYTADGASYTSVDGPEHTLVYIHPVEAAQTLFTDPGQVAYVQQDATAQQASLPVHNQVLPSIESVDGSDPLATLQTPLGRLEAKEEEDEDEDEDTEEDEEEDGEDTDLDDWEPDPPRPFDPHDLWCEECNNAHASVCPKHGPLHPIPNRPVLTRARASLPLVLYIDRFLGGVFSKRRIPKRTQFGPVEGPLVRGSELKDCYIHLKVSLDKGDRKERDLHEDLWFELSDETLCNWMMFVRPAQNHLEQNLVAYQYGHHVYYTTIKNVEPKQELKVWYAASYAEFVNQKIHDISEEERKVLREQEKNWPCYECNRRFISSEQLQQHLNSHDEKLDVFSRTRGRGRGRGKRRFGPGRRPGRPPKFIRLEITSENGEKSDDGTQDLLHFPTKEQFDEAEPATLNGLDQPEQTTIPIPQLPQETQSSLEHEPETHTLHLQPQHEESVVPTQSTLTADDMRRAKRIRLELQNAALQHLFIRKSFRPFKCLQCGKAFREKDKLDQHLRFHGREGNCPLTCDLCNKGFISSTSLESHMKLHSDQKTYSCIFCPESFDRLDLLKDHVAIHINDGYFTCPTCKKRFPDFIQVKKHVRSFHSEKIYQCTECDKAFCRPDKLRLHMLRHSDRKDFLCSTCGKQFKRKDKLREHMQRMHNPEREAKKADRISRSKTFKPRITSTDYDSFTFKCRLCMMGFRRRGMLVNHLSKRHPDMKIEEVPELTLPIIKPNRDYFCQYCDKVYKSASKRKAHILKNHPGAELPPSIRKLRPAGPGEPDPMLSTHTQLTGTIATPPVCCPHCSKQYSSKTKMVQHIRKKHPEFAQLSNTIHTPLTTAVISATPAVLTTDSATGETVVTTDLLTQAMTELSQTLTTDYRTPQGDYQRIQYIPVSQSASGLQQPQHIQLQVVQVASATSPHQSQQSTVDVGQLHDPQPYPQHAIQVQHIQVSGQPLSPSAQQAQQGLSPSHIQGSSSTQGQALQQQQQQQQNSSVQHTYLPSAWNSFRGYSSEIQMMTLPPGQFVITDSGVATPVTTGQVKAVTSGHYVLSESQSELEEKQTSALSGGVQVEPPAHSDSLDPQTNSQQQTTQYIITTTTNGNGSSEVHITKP
UniProt Q969Q6: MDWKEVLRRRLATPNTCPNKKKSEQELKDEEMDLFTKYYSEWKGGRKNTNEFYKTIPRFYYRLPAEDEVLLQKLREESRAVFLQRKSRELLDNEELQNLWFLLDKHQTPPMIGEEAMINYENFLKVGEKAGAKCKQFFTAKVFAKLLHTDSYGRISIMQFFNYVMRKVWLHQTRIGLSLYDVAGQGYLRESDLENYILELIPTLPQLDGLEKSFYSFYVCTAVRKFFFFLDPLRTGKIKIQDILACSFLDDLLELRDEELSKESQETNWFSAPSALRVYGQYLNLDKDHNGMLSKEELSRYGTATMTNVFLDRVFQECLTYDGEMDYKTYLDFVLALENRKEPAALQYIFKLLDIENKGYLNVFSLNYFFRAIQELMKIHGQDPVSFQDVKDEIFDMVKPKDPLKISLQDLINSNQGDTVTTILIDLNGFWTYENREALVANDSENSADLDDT
UniProt Q6NUP7: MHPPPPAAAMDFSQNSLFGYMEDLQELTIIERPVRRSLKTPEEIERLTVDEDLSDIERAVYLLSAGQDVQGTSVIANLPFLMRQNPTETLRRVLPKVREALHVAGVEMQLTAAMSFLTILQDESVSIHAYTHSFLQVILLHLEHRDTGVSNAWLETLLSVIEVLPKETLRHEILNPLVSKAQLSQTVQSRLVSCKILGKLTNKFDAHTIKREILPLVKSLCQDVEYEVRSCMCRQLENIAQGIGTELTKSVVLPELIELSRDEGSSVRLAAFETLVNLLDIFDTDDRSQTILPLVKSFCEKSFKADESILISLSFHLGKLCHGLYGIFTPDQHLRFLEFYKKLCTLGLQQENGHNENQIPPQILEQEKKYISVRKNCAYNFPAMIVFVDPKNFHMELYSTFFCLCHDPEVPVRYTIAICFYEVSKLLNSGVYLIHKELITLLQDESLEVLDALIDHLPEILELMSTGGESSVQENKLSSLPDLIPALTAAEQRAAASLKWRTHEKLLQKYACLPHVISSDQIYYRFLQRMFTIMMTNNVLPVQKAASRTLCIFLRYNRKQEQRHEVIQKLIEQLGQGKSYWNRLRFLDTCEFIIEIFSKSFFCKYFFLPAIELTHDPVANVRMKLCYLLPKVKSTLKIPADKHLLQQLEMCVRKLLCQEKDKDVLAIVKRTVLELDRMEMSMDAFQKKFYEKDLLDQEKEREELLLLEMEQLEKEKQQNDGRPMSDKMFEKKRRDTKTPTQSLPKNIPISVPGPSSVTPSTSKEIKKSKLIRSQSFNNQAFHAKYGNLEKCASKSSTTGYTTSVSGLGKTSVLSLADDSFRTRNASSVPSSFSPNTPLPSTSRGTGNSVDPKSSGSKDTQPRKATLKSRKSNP
UniProt Q04759: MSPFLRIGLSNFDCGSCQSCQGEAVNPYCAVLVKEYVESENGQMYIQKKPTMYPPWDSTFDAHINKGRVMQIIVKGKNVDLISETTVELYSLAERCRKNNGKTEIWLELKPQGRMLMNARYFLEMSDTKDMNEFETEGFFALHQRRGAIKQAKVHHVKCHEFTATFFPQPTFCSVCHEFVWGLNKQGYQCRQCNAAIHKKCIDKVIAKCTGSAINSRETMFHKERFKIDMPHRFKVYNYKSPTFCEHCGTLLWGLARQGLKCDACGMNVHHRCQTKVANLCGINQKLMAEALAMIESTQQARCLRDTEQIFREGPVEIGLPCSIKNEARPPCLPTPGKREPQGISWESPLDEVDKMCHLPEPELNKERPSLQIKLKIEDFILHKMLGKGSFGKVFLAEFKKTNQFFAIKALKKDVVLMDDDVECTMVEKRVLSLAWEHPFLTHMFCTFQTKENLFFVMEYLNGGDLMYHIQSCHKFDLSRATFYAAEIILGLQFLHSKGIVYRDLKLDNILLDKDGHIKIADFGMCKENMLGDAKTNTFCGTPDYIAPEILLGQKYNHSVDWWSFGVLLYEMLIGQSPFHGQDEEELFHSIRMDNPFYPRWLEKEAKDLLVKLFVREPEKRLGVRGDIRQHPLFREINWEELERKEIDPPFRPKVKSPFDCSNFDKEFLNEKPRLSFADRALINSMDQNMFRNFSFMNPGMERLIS
UniProt Q8WWY3: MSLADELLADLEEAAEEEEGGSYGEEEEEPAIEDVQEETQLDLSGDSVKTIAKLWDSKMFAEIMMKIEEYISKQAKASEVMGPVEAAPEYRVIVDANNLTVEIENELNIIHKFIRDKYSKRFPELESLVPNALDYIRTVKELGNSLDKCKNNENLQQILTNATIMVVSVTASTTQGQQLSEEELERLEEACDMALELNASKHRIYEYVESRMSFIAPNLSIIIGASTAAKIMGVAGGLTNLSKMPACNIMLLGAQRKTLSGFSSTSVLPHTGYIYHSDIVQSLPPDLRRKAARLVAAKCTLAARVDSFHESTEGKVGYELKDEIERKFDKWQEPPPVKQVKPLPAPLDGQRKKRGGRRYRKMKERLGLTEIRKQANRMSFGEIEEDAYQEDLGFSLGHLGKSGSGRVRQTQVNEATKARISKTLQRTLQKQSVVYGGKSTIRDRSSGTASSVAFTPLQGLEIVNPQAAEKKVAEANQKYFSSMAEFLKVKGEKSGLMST
UniProt Q15435: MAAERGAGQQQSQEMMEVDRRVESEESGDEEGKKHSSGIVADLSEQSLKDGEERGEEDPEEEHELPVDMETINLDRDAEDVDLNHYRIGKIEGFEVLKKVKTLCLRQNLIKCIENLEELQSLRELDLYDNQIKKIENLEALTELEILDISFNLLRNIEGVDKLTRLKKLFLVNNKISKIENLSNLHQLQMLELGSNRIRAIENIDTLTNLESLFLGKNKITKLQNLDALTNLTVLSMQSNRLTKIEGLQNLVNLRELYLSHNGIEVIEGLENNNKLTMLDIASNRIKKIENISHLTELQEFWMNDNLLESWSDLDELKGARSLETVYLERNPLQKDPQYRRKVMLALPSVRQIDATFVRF
UniProt O95685: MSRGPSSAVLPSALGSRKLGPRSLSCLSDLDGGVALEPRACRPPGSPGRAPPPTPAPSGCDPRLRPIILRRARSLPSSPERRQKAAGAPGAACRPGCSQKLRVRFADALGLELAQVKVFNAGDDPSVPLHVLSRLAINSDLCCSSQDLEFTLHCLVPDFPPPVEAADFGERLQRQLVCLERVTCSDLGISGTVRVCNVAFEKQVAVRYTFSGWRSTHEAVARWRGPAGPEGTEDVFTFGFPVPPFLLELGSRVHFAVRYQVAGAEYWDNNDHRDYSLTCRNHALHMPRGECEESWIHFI

Columns and labels:
Test in all cases: log2 fold change, soluble protein after heating vs DMSO (PISA); higher = thermal stabilisation; K562 lysate, 10 uM; active = over 0.2 and 3.5 SD of the protein, either way, in both replicates (recomputed)
erlotinib = compound: C#Cc1cccc(Nc2ncnc3cc(OCCOC)c(OCCOC)cc23)c1 [erlotinib]
Summary of the method: (§1)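 Thermal stability, expressed as log-two fold change relative to solvent controls, is given from duplicates. Crude K562 extract in PBS pH 7.4 with 1 mM MgCl2, at 1 mg/mL protein, was treated with 10 μM compound for 30 min and heated in aliquots for 3 min across 48°C-58°C. After pooling, adjustment to 0.5% NP-40 at 4°C and centrifugation at 21,000xg for 90 min, supernatant protein was measured by TMTpro 16plex LC-MS/MS with channel sums equalised.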

[1] = compound: C/C(=N\NC(=O)C1=CC(=CC=C1)S(=O)(=O)N2CCOCC2)/C3=C(C=CC(=C3)Cl)O
Summary of the method: as §1

[2] = compound: C1=CC(=CC=C1C2=NC3=C(N2)C=C(C=C3)C(=O)N)OC4=CC=C(C=C4)Cl
Summary of the method: as §1

[3] = compound: C1=CC2=C(C=CC(=C2)/C=C\3/C(=O)NC(=NCC4=CC=CS4)S3)N=C1
Summary of the method: as §1

[4] = compound: C1=CC2=NC=CN=C2C=C1/C=C/3\C(=O)NC(=O)S3
Summary of the method: as §1

[5] = compound: C1=CC=C(C=C1)C2=NC(=C(N2)C3=CC=NC=C3)C4=CC(=C(C=C4)Cl)O
Summary of the method: as §1

[6] = compound: C1=CC=C2C(=C1)C3=NNC4=CC=CC(=C43)C2=O
Summary of the method: as §1

[7] = compound: C1CCN(C1)C(=O)NC2=CC=CC(=C2)NC3=NC=C(C(=N3)NCCC4=CN=CN4)Br
Summary of the method: as §1

[8] = compound: C1CN(CCC1(CC2=CC=C(C=C2)Cl)N)C3=NC=NC4=C3C=CN4
Summary of the method: as §1

IRAK-1-4 Inhibitor I = compound: C1COCCN1CCN2C3=CC=CC=C3N=C2NC(=O)C4=CC(=CC=C4)[N+](=O)[O-] [IRAK-1-4 Inhibitor I]
Summary of the method: as §1

ibrutinib = compound: C=CC(=O)N1CCC[C@@H](n2nc(-c3ccc(Oc4ccccc4)cc3)c3c(N)ncnc32)C1 [ibrutinib]
Summary of the method: as §1

[9] = compound: CC(=O)c1cnc2ccc(-c3cc(Cl)c(O)c(Cl)c3)nc2c1N[C@H]1CC[C@H](CN(C)C)CC1
Summary of the method: as §1

ralimetinib = compound: CC(C)(C)Cn1c(N)nc2ccc(-c3[nH]c(C(C)(C)C)nc3-c3ccc(F)cc3)nc21 [ralimetinib]
Summary of the method: as §1

[10] = compound: CC(C)(O)CC(=O)NCCn1ccc2ncnc(Nc3ccc(Oc4cccc(C(F)(F)F)c4)c(Cl)c3)c21
Summary of the method: as §1

[11] = compound: CC(C)C1=C2N=C(C=C(N2N=C1)NCC3=CC=CC=C3)NCCCCCCN
Summary of the method: as §1

[12] = compound: CC1=C(C(CC(=O)N1)C2=CC=C(C=C2)C(F)(F)F)C(=O)NC3=C(C=C4C(=C3)C=NN4)F
Summary of the method: as §1

[13] = compound: CC1=C(C2=C(C=C1)C(=O)C3=CC=CC=C3N2CCCN)C
Summary of the method: as §1

[14] = compound: CC1=C(C=C(C=C1)NC(=O)C2=CC(=CC=C2)C(C)(C)C#N)NC3=CC4=C(C=C3)N=CN(C4=O)C
Summary of the method: as §1

[15] = compound: CC1=C(C=C(C=C1)NC(=O)C2=CC(=CC=C2)N(C)C)NC(=O)C3=CC=C(C=C3)O
Summary of the method: as §1

[16] = compound: CC1=CC=C(C=C1)SC2=C3C=C(SC3=CN=C2)C(=O)N
Summary of the method: as §1

Measured: log2 fold change

PPP3CB (UniProt P16298)
inactive: erlotinib -0.047 | [1] 0.026 | [2] 0.019 | [3] -0.018 | [4] 0.011 | [5] 0.013 | [6] 0.04 | [7] -0.035 | [8] -0.032 | IRAK-1-4 Inhibitor I 0.011 | ibrutinib -0.02 | [9] -0.022 | ralimetinib 0.072 | [10] -0.026 | [11] -0.032 | [12] 0.034 | [13] -0.024 | [14] 0.022 | [15] -0.009 | [16] 0.016

PPP2R5C isoform 5 (UniProt Q13362)
inactive: erlotinib -0.013 | [1] -0.025 | [2] -0.009 | [3] -0.025 | [4] 0.016 | [5] -0.002 | [6] -0.039 | [7] 0.01 | [8] 0.027 | IRAK-1-4 Inhibitor I 0.013 | ibrutinib -0.002 | [9] 0.012 | ralimetinib -0.021 | [10] -0.036 | [11] -0.037 | [12] -0.038 | [13] 0.02 | [14] 0.002 | [15] 0.014 | [16] 0.037

PRDM10 isoform 6 (UniProt Q9NQV6)
inactive: erlotinib -0.045 | [1] 0.032 | [2] 0.007 | [3] -0.063 | [4] -0.072 | [5] -0.042 | [6] -0.093 | [7] 0.146 | [8] -0.058 | IRAK-1-4 Inhibitor I -0.158 | ibrutinib 0.03 | [9] 0.011 | ralimetinib 0.043 | [10] -0.196 | [11] 0.061 | [15] 0.058 | [16] -0.114

PPP2R3C (UniProt Q969Q6)
inactive: erlotinib -0.061 | [1] -0.009 | [2] -0.126 | [3] -0.025 | [4] -0.019 | [5] 0.033 | [6] -0.032 | [7] -0.023 | [8] -0.035 | IRAK-1-4 Inhibitor I -0.018 | ibrutinib 0.108 | [9] 0.089 | ralimetinib 0.109 | [10] 0.036 | [11] -0.088 | [12] 0.021 | [13] -0.02 | [15] 0.048 | [16] 0.196

Two successive records already listed, for reference:
PPP3CB (UniProt P16298)
inactive: erlotinib -0.047 | [1] 0.026 | [2] 0.019 | [3] -0.018 | [4] 0.011 | [5] 0.013 | [6] 0.04 | [7] -0.035 | [8] -0.032 | IRAK-1-4 Inhibitor I 0.011 | ibrutinib -0.02 | [9] -0.022 | ralimetinib 0.072 | [10] -0.026 | [11] -0.032 | [12] 0.034 | [13] -0.024 | [14] 0.022 | [15] -0.009 | [16] 0.016

PPP2R5C isoform 5 (UniProt Q13362)
inactive: erlotinib -0.013 | [1] -0.025 | [2] -0.009 | [3] -0.025 | [4] 0.016 | [5] -0.002 | [6] -0.039 | [7] 0.01 | [8] 0.027 | IRAK-1-4 Inhibitor I 0.013 | ibrutinib -0.002 | [9] 0.012 | ralimetinib -0.021 | [10] -0.036 | [11] -0.037 | [12] -0.038 | [13] 0.02 | [14] 0.002 | [15] 0.014 | [16] 0.037

Additional records.

PPP4R4 (UniProt Q6NUP7)
inactive: erlotinib 0.126 | [1] -0.035 | [2] 0.07 | [3] -0.02 | [4] -0.058 | [5] 0.111 | [6] -0.273 | [7] -0.001 | [8] 0.119 | IRAK-1-4 Inhibitor I 0.153 | ibrutinib 0 | [9] -0.266 | ralimetinib -0.143 | [10] -0.405 | [11] 0.047 | [12] -0.048 | [13] -0.292 | [14] 0.377 | [15] 0.137 | [16] -0.206

PRKCQ (UniProt Q04759)
inactive: erlotinib -0.004 | [1] -0.013 | [2] 0.005 | [3] 0.001 | [4] -0.035 | [5] 0.022 | [6] -0.057 | [7] -0.072 | [8] 0.026 | IRAK-1-4 Inhibitor I -0.026 | ibrutinib 0.011 | [9] 0.167 | ralimetinib -0.022 | [10] 0.058 | [11] 0.012 | [12] -0.01 | [13] 0.014 | [14] 0.02 | [15] 0.058 | [16] 0.037

PRPF31 (UniProt Q8WWY3)
inactive: erlotinib -0.022 | [1] -0.053 | [2] -0.033 | [3] 0.013 | [4] -0.025 | [5] 0.046 | [6] 0.021 | [7] -0.068 | [8] -0.036 | IRAK-1-4 Inhibitor I -0.072 | ibrutinib 0.016 | [9] 0.008 | ralimetinib 0.013 | [10] 0.054 | [11] 0.022 | [12] 0.016 | [13] -0.004 | [14] 0.008 | [15] -0.015 | [16] 0.035

PPP1R7 (UniProt Q15435)
inactive: erlotinib -0.052 | [1] 0.011 | [2] -0.002 | [3] -0.008 | [4] -0.023 | [5] 0.002 | [6] 0 | [7] 0.016 | [8] -0.016 | IRAK-1-4 Inhibitor I -0.004 | ibrutinib 0.012 | [9] 0.02 | ralimetinib 0.009 | [10] -0.008 | [11] 0.014 | [12] -0.032 | [13] 0.009 | [14] 0.017 | [15] 0.009 | [16] 0.013

PPP1R3D (UniProt O95685)
inactive: erlotinib -0.082 | [1] 0.014 | [2] -0.026 | [3] -0.062 | [4] -0.055 | [5] 0.003 | [6] -0.007 | IRAK-1-4 Inhibitor I -0.019 | ibrutinib -0.077 | [9] -0.003 | ralimetinib -0.025 | [10] -0.004 | [11] -0.055 | [12] -0.02 | [14] 0.035 | [15] -0.024 | [16] -0.014
